Source: the supplement of paper PMC10470496
Where a name gives a salt, the structure may show the parent alone. The list shows a part of the results. Repeats are few or missing, and single values can be far off.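 Three clinical Candida auris isolates (clades III, IV and I) from the CDC resistance isolate bank were grown in RPMI-1640 at 35°C. Growth was background-corrected OD600 relative to same-plate vehicle-only wells. Hits required over 50% inhibition in at least two strains and a plate-corrected B-score above 0.1.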

Experiments:
Assay in all cases: growth relative to vehicle control (OD600 ratio) (fraction); higher = less inhibition
Details in all cases: 24 h
C. auris AR-384 = system: C. auris AR-384
C. auris AR-386 = system: C. auris AR-386
C. auris AR-387 = system: C. auris AR-387

| SMILES | growth (C. auris AR-384; 1 µM) | growth (C. auris AR-384; 10 µM) | growth (C. auris AR-386; 1 µM) | growth (C. auris AR-386; 10 µM) | growth (C. auris AR-387; 1 µM) | growth (C. auris AR-387; 10 µM) |
| --- | --- | --- | --- | --- | --- | --- |
| Cc1cc(C#N)cc(C)c1Oc1nc(Nc2ccc(C#N)cc2)nc(N)c1Br [Etravirine (TMC125)] | 1.1 | 0.96 | 0.81 | 0.96 | 0.74 | 0.82 |
| CC(=O)O[C@]1(C(C)=O)CC[C@H]2[C@@H]3C=C(Cl)C4=CC(=O)[C@@H]5C[C@@H]5[C@]4(C)[C@H]3CC[C@@]21C [Cyproterone Acetate] | 1.04 | 0.91 | 0.87 | 0.95 | 0.81 | 0.8 |
| Cc1nnc(NS(=O)(=O)c2ccc(N)cc2)s1 [Sulfamethizole] | 0.74 | 0.94 | 0.58 | 0.94 | 0.88 | 1.06 |
| CCCc1nn(C)c2c(=O)[nH]c(-c3cc(S(=O)(=O)N4CCN(C)CC4)ccc3OCC)nc12 [Sildenafil Citrate] | 0.6 | 0.61 | 0.57 | 0.92 | 0.72 | 0.81 |
| CC(c1cc2ccccc2s1)N(O)C(N)=O (configuration not stated) [Zileuton] | 0.72 | 0.64 | 0.68 | 0.72 | 0.88 | 0.88 |
| N#C[C@@H]1C[C@@H]2C[C@@H]2N1C(=O)[C@@H](N)C12CC3CC(CC(O)(C3)C1)C2 [Saxagliptin hydrate] | 1.23 | 1.09 | 0.96 | 1.21 | 0.79 | 0.86 |
| Nc1ccn([C@@H]2CS[C@H](CO)O2)c(=O)n1 [Lamivudine] | 0.96 | 1.04 | 1.21 | 1.22 | 0.93 | 0.96 |
| Cn1c(=O)c2c(ncn2CC(O)CO)n(C)c1=O (configuration not stated) [Dyphylline] | 1.03 | 1.44 | 1.32 | 0.81 | 1.07 | 1.12 |
| COc1c(C)c2c(c(O)c1C/C=C(\C)CCC(=O)O)C(=O)OC2 [Mycophenolic acid] | 0.72 | 0.76 | 0.88 | 0.66 | 0.85 | 0.83 |
| O=C(Cn1ccnc1[N+](=O)[O-])NCc1ccccc1 [Benznidazole] | 0.87 | 0.97 | 0.81 | 1.1 | 0.94 | 1.07 |
| C=CCNC(N)=S [Allylthiourea] | 1.03 | 0.68 | 0.8 | 0.92 | 0.73 | 1.02 |
| CC(=O)[C@H]1CC[C@H]2[C@@H]3CCC4=CC(=O)CC[C@]4(C)[C@H]3CC[C@]12C [Progesterone] | 0.93 | 0.61 | 0.96 | 1.15 | 0.98 | 0.79 |
| O=NO [Sodium Nitrite] | 0.92 | 0.82 | 1.09 | 0.76 | 0.73 | 0.66 |
| CC(CN(C)C)CN1c2ccccc2CCc2ccccc21 (configuration not stated) [Trimipramine Maleate] | 0.85 | 0.95 | 1.09 | 1 | 0.89 | 1.05 |
| NC(=O)C(c1ccccc1)(c1ccccc1)[C@@H]1CCN(CCc2ccc3c(c2)CCO3)C1 [Darifenacin HBr] | 0.83 | 0.78 | 0.78 | 0.95 | 1.03 | 0.67 |
| N=C(N)NC(=O)c1nc(Cl)c(N)nc1N [Amiloride HCl dihydrate] | 1.57 | 1.49 | 1.25 | 1.17 | 1.34 | 1.07 |

In another format: entries from further up
SMILES | growth (C. auris AR-384; 1 µM) | growth (C. auris AR-384; 10 µM) | growth (C. auris AR-386; 1 µM) | growth (C. auris AR-386; 10 µM) | growth (C. auris AR-387; 1 µM) | growth (C. auris AR-387; 10 µM)
O=C(Cn1ccnc1[N+](=O)[O-])NCc1ccccc1 [Benznidazole] | 0.87 | 0.97 | 0.81 | 1.1 | 0.94 | 1.07
O=NO [Sodium Nitrite] | 0.92 | 0.82 | 1.09 | 0.76 | 0.73 | 0.66

The results go on:

| SMILES | growth (C. auris AR-384; 1 µM) | growth (C. auris AR-384; 10 µM) | growth (C. auris AR-386; 1 µM) | growth (C. auris AR-386; 10 µM) | growth (C. auris AR-387; 1 µM) | growth (C. auris AR-387; 10 µM) |
| --- | --- | --- | --- | --- | --- | --- |
| CN1CCN(CCCN2c3ccccc3Sc3ccc(Cl)cc32)CC1 [Prochlorperazine dimaleate salt] | 0.91 | 1.06 | 1.01 | 1.09 | 0.99 | 1.41 |
| O=C1CN(/N=C/c2ccc([N+](=O)[O-])o2)C(=O)N1 [Nitrofurantoin] | 0.63 | 0.63 | 0.53 | 0.48 | 0.65 | 0.65 |
| Nc1nc2[nH]cc(CCc3ccc(C(=O)N[C@@H](CCC(=O)O)C(=O)O)cc3)c2c(=O)[nH]1 [Pemetrexed] | 1.08 | 1.32 | 0.95 | 1.28 | 1 | 1.18 |
| NCc1ccc(S(N)(=O)=O)cc1 [Mafenide hydrochloride] | 1.23 | 1.16 | 1.27 | 1.32 | 1.62 | 1.45 |
| CCCCC(CC)COC(=O)CC(C(=O)OCC(CC)CCCC)S(=O)(=O)O (configuration not stated) [Docusate Sodium] | 1.13 | 2.2 | 0.94 | 0.97 | 0.57 | 1.22 |
| N=C(N)NC(=O)Cc1c(Cl)cccc1Cl [Guanfacine Hydrochloride] | 0.81 | 0.8 | 0.93 | 0.93 | 0.72 | 0.88 |
| CNNCc1ccc(C(=O)NC(C)C)cc1 [Procarbazine HCl] | 1.09 | 1.2 | 0.94 | 1.22 | 0.97 | 1.24 |
| O=C1O[C@H]([C@@H](O)CO)C(O)=C1O [Vitamin C] | 0.9 | 0.81 | 1.04 | 0.7 | 0.76 | 0.96 |
| C[C@]12C=CC(=O)C=C1CC[C@H]1[C@@H]3C[C@@H](O)[C@](O)(C(=O)CO)[C@@]3(C)C[C@H](O)[C@@]12F [Triamcinolone] | 0.72 | 0.89 | 1.08 | 1.08 | 0.82 | 0.78 |
| COc1cc(/C=C/C(=O)CC(=O)/C=C/c2ccc(O)c(OC)c2)ccc1O [Curcumin] | 0.59 | 0.53 | 0.78 | 1.05 | 0.88 | 1.03 |
| CC1(C)O[C@@H]2[C@@H](CO[C@@]3(COS(N)(=O)=O)OC(C)(C)O[C@@H]23)O1 [Topiramate] | 0.91 | 0.52 | 0.57 | 0.81 | 0.82 | 0.87 |
| Cc1c(C)c2c(c(C)c1O)CCC(C)(COc1ccc(CC3SC(=O)NC3=O)cc1)O2 (configuration not stated) [Troglitazone (CS-045)] | 1.09 | 0.71 | 0.97 | 0.76 | 0.88 | 0.77 |
| CC[C@@H](CO)NCCN[C@@H](CC)CO [Ethambutol 2HCl] | 1.02 | 1.05 | 1.09 | 1.13 | 1.09 | 1.12 |
| COc1ccnc(C[S+]([O-])c2nc3cc(OC(F)F)ccc3[nH]2)c1OC (configuration not stated) [Pantoprazole sodium] | 1.18 | 1.39 | 1.14 | 1.16 | 1.33 | 1.26 |
| Nc1nc(=O)[nH]cc1F [Flucytosine] | 0.67 | 0.12 | 0.46 | 0.13 | 0.1 | 0.1 |
| CN(C)C(=O)COC(=O)Cc1ccc(OC(=O)c2ccc(NC(=N)N)cc2)cc1 [Camostat Mesilate] | 1.07 | 1.1 | 1.01 | 0.96 | 0.98 | 1.18 |
